Measured values as given in publication PMC6949240.
Results are given in words; binding and its absence hold for the method and conditions named. Binding seen in cells or lysates may run through a third protein. Here binding means that the protein was enriched with, or labelled near, the bait; the list need not be complete.

Sequences of proteins named here, by UniProt entry; tags and fusion partners are left off.
UniProt P11940: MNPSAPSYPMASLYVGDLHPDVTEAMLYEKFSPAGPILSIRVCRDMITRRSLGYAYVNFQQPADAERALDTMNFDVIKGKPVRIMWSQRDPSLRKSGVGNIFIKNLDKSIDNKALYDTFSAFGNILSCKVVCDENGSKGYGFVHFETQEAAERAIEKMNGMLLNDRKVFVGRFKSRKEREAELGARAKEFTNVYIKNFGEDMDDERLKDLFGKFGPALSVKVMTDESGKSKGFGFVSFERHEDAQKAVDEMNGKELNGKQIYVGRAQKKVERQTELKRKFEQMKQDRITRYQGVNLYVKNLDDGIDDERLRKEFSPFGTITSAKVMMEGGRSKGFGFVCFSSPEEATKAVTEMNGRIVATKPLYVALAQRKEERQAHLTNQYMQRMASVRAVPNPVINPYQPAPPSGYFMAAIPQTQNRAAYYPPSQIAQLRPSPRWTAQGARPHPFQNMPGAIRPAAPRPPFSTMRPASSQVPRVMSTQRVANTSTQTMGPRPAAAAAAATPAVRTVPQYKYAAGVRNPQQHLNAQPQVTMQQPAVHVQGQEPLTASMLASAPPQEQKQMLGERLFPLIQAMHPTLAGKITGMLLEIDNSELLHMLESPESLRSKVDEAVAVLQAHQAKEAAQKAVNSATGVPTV
UniProt P67809: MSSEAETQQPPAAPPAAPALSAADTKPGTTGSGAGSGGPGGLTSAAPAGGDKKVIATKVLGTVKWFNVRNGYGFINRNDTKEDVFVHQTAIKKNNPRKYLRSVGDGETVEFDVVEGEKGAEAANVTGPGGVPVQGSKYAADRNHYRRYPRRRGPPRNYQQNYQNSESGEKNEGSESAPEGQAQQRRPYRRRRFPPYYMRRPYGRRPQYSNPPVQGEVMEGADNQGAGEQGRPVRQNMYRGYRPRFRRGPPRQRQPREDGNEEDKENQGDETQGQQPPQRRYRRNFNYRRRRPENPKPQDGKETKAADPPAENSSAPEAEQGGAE
UniProt P39748: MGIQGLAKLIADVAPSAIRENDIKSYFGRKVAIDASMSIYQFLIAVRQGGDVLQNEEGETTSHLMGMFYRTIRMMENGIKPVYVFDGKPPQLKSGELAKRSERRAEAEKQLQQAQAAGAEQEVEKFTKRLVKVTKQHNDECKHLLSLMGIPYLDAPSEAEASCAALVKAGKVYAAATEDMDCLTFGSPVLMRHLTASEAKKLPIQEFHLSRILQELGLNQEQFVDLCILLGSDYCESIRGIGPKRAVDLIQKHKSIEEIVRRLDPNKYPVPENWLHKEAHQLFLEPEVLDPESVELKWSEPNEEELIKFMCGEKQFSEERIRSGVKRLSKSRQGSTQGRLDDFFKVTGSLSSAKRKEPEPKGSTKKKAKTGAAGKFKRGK
UniProt P18887: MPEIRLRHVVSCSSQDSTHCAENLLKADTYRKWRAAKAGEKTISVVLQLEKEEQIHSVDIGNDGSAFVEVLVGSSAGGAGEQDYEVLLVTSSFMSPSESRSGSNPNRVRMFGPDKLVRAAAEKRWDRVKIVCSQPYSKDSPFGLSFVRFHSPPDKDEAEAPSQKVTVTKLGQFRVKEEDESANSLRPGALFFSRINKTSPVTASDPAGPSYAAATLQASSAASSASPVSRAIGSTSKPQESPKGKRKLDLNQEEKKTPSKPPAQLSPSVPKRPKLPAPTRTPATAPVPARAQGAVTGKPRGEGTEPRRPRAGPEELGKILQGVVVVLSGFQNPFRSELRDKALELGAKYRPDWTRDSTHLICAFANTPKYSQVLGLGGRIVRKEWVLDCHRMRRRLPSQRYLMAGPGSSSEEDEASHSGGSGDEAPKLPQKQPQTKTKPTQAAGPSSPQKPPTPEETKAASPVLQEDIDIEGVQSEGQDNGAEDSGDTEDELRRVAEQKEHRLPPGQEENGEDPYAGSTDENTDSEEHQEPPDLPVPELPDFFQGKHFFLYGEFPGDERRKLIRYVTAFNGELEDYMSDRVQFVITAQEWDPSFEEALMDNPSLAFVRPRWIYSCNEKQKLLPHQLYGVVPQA
UniProt P06748: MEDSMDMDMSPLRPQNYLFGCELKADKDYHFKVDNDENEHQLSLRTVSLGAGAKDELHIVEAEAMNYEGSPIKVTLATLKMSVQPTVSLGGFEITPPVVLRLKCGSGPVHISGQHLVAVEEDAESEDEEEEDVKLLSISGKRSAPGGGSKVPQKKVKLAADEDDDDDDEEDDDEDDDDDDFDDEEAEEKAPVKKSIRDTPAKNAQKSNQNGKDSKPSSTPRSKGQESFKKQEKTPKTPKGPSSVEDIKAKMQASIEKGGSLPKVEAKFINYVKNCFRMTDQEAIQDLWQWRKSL

What follows are substances tested against APE1 FLAG-tagged protein (apurinic/apyrimidinic endonuclease 1) (human) (UniProt P27695) (assay: affinity purification with mass spectrometry; anti-FLAG (M2) immunocapture of APE1-FLAG from whole-cell, nuclear and cytoplasmic extracts of a HeLa clone; SDS-PAGE, in-gel trypsin digestion, nanoLC-ESI-Q-Orbitrap-MS/MS; hits filtered against empty-vector clone (SCR) and resin without antibody (res)).

Row | Substance | binding
1 | PABPC1 (from UniProt P11940 1-636) | binds
2 | YB1 (Y-Box binding protein 1, coded by YBX1) (from UniProt P67809 1-324) | binds
3 | hnRNPK (heterogeneous nuclear ribonucleoprotein K) (from UniProt P61978 1-463) | binds

Next, values leading:

Row | binding | Substance
4 | binds | FEN1 (from UniProt P39748 1-380)
5 | binds | XRCC1 (from UniProt P18887 1-633) (other; other documents disagree on this pair)
6 | binds | nucleophosmin 1 (NPM1) (from UniProt P06748 1-294)
